# In the supplement of paper PMC10689618:
# Counter-ions that a name gives are not always drawn. Some of the results follow. Many values rest on one well or one pass, so single values are uncertain.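 Labelled rat cortical synaptosomes were engulfed by primary human fetal astrocytes. Engulfment equaled a red/green ratio, corrected for calcein live-cell signal and normalized to the plate median. Compounds were toxic when calcein dropped over 30%, and reduced phagocytosis when below 70% of the median above 5 µM.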
# System: Human fetal astrocytes
# Experiment: synaptosome phagocytosis (pHrodo/calcein intensity ratio) relative to plate median of data wells; higher = more phagocytosis
# Conditions: 2.78 µM; 24 h
row,SMILES,synaptosome phagocytosis
1,O=[N+]([O-])c1cccc2c(Br)[nH]nc12 [3-Bromo-7-nitroindazole],140%
2,CCC(C)N(C)C(=O)c1cc2ccccc2c(-c2ccccc2Cl)n1 (stereo not given),97.3%
3,OC(CN1CCN(c2cccc(Cl)c2)CC1)C(c1ccccc1)c1ccccc1 (stereo not given),98.1%
4,CSC(=N)N [S-Methylisothiourea hemisulfate],118%
5,Cc1ccccc1N1C(=O)c2cc(S(N)(=O)=O)c(Cl)cc2NC1C (stereo not given) [Metolazone],90.3%
6,CC(C)(C)NCC(O)c1ccc(O)c(CO)c1 (stereo not given) [Albuterol hemisulfate],96%
7,C[C@]12CC[C@@H]3c4ccc(O)cc4CC[C@H]3[C@@H]1CCC2=O [Estrone],95.5%
8,Nc1nc2[nH]c(=O)cnc2c(=O)[nH]1 [Isoxanthopterin],118%
9,CC[N+](CC)(CC)CC [Tetraethylammonium chloride],116%
10,O=C(CCCN1CC=C(n2c(=O)[nH]c3ccccc32)CC1)c1ccc(F)cc1 [Droperidol],81.2%
11,CCn1c(=O)[nH]c2cc(Cl)c(Cl)cc21,106%
12,C=C[C@H]1CN2CC[C@H]1C[C@H]2[C@H](O)c1ccnc2ccc(OC)cc12 [Quinine sulfate],89.8%
13,CC(C)C(=O)Nc1ccc([N+](=O)[O-])c(C(F)(F)F)c1 [Flutamide],104%
14,NCCNC(=O)c1ccc(Cl)cc1 [Ro 16-6491 hydrochloride],109%
15,Cn1c(=O)c2[nH]c(-c3ccc(S(=O)(=O)O)cc3)nc2n(C)c1=O [8-(p-Sulfophenyl)theophylline],103%

# 2 of the compounds above, bar-delimited:
row | SMILES | synaptosome phagocytosis
13 | CC(C)C(=O)Nc1ccc([N+](=O)[O-])c(C(F)(F)F)c1 [Flutamide] | 104%
14 | NCCNC(=O)c1ccc(Cl)cc1 [Ro 16-6491 hydrochloride] | 109%
